Data: PubChem BioAssay (Tox21)
Values joined by “and” are separate entries in the source; they are usually repeats but may differ in a detail not shown here. Identical values can stand only once. This list was built around the results that the source calls inconclusive (neither active nor inactive); the mix of calls is not that of the screen. Potencies beside an inconclusive call are fits to weak or partial responses and may not hold up. A structure can be active in one record and inactive in another. Active and inactive are the calls of the source. Calls come from the whole dose curve; as a rule, active = well fitted curve in the direction sought with a large enough effect in the repeat runs; inconclusive = weak or mixed curves; inactive = no such curve, though single readings can be large; an effect the other way counts as inactive or inconclusive.

By UniProt entry, the sequences of proteins in these tests, tags left out. Where a name states a change or a piece, a line headed by the entry shows the natural chain unless it says otherwise.
UniProt O75469: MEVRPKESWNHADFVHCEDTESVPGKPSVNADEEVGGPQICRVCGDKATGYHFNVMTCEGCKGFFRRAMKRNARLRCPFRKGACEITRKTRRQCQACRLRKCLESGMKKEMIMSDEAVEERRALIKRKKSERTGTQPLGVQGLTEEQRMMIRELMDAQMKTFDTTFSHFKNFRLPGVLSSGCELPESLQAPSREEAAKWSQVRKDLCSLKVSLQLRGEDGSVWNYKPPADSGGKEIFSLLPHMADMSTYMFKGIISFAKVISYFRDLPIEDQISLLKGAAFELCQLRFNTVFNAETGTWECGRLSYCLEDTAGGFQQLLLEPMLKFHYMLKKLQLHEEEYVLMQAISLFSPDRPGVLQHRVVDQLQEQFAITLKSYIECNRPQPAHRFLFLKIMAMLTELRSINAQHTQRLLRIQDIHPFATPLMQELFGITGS
UniProt Q9R1A7: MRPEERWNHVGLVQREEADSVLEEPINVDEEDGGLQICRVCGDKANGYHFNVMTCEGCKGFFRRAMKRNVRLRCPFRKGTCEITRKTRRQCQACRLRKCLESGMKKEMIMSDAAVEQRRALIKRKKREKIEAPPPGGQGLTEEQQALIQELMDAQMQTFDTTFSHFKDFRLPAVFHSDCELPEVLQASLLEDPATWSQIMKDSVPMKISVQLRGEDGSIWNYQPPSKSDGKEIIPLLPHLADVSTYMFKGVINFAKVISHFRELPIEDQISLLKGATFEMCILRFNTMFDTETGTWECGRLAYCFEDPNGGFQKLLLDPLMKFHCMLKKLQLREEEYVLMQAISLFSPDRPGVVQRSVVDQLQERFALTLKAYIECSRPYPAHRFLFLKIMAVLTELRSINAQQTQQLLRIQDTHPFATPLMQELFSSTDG
UniProt P10635, whole entry, looked up: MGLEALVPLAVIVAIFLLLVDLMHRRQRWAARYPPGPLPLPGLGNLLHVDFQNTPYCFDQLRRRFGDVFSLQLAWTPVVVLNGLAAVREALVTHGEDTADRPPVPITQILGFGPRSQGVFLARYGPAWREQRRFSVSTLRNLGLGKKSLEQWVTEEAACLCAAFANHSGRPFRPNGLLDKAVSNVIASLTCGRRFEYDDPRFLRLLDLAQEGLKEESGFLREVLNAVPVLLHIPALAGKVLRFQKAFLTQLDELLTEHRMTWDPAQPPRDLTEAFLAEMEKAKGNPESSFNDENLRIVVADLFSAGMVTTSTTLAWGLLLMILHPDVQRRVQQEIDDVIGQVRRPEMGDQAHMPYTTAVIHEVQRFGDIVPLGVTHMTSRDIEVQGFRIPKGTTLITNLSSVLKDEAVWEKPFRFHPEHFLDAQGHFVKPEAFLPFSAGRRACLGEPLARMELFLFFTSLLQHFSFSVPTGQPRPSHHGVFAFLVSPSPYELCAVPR
UniProt P33261, whole entry, looked up: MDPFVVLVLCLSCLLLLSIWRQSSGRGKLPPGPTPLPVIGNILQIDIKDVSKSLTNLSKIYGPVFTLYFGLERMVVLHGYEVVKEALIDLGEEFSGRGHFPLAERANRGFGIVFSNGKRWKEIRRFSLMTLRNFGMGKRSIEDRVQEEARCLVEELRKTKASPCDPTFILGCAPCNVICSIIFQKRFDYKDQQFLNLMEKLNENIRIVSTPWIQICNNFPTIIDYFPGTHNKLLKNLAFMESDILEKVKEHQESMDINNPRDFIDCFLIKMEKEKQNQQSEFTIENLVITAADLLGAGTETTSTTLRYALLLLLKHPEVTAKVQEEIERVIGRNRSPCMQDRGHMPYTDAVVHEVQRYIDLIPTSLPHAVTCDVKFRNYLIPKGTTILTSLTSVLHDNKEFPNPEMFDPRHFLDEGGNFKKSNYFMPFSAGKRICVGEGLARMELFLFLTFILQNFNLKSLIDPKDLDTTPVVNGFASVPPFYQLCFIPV
UniProt P11712, whole entry, looked up: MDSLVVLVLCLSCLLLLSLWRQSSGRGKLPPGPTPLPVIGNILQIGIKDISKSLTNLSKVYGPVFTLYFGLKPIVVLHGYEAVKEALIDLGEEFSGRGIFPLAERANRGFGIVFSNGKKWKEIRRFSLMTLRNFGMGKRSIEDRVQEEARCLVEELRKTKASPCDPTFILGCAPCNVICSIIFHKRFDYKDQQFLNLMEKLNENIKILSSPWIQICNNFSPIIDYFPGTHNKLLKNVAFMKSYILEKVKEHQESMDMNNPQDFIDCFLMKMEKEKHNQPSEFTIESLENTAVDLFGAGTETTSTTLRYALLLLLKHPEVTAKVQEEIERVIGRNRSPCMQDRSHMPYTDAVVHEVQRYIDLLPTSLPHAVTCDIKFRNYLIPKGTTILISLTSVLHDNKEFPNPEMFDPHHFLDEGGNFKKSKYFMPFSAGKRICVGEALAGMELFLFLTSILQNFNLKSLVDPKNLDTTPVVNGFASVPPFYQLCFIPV

Molecular target: Nuclear receptor subfamily 1 group I member 2 (Homo sapiens) (UniProt O75469)
Assay: Human pregnane X receptor (PXR) small molecule agonists, qHTS assay (AID 1346982); note: nearly all actives have a fitted effect of over 35% in size; for activation: % is set by controls: 0 for no effect and ±100 for the full control effect
Conditions: PXR-Luc HepG2, CYP3A4 luciferase reporter, 24 h; series mostly up to 92.4 µM; activation: at the top concentration
Outline: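 We seeded PXR-Luc HepG2 cells in assay medium containing 5% charcoal-stripped FBS, added compounds 5 hr later, incubated 24 hr, and read luminescence with ONE-Glo reagent.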
Potency is the fitted concentration of half-maximal effect.

Row | Compound | Potency | activation
1 | CNCCS(=O)(=O)O | inconclusive: 30.9 µM [activator, partial curve] | –
2 | CC(C)=NNC(N)=S | inconclusive: 68.6 µM [activator, single point] | –
3 | O=C(Oc1ccccc1)c1ccccc1 | inactive | –
4 | C[C@]12CCC(=O)C=C1C=C[C@@H]1[C@@H]2CC[C@@]2(C)[C@H]1CC[C@@]21CCC(=O)O1 | – | inactive: 21.7% [at 42.5 µM]
5 | C#C[C@]1(O)CC[C@H]2[C@@H]3CCC4=CC(=O)CC[C@@H]4[C@H]3CC[C@@]21C | inconclusive: 33.5 µM [activator, partial curve, poor fit] | –
6 | CCCCCOC(=O)c1ccc(O)cc1 | inconclusive: 61.9 µM [activator, single point] | –
7 | O=[N+]([O-])c1ccc(O)cc1C(F)(F)F | inconclusive: 68.6 µM [activator, single point] | –
8 | CCCCCCCCCCCCOCCOS(=O)(=O)O | inconclusive: 24.3 µM [activator, single point] | –

Molecular target: Nuclear receptor subfamily 1 group I member 2 (Rattus norvegicus) (UniProt Q9R1A7)
Assay: Rat pregnane X receptor (rPXR) activation by small molecules, qHTS assay (AID 1346983); note: nearly all actives have a fitted effect of over 20% in size
Conditions: rPXR luciferase reporter cells, One-Glo luminescence, 24 h; max activation: active compounds read high
Outline: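 Cell-based rPXR activation assay: rPXR cells, 2,000 per well, rested 5hr at 37 C, then exposed to compounds in DMSO for 24 hr at 37 C. Luciferase activity read by One-Glo luminescence after 30 min at room temperature.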

Row | Compound | Potency
9 | C[C@]12CCC(=O)C=C1[C@@H]1C[C@@H]1[C@H]1[C@@H]3[C@@H]4C[C@@H]4[C@@]4(CCC(=O)O4)[C@@]3(C)CC[C@@H]12 | inconclusive: 15.8 µM [activator, partial curve, poor fit]
10 | NNc1nncc2ccccc12 | active: 0.112 µM
11 | CNCCCCOc1ccccc1Cc1ccccc1 | inconclusive: 31.6 µM [activator, single point]

Molecular target: Cytochrome P450 2D6 (Homo sapiens) (UniProt P10635)
Assay: Cytochrome P450 Family 2 Subfamily D Member 6 (CYP2D6) small molecule antagonists: luciferase reporter qHTS assay (AID 1671196); note: nearly all actives have a fitted effect of over 50% in size; for activity change, negative = inhibition: % is set by controls: 0 for no effect and ±100 for the full control effect
Conditions: P450-Glo CYP2D6 enzyme assay, luciferin luminescence, 1 h; series mostly up to 115 µM; activity change, negative = inhibition: at the top concentration
Outline: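 Luminescence (RLU), read 20 min after detection reagent, indicated CYP2D6 conversion of proluciferin to luciferin during a 1 h NADPH-dependent reaction at room temperature.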

Row | Compound | Potency
12 | CC(C)=NNC(N)=S | inconclusive: 71 µM [inhibitor, partial curve]
13 | CC[C@H](NC(C)C)[C@H](O)c1ccc(O)c2[nH]c(=O)ccc12 | inconclusive: 21.9 µM [inhibitor, partial curve, poor fit]
14 | OCCC1CCCCN1 (centres undefined) | inconclusive: 56.7 µM [inhibitor, partial curve]
15 | C#C[C@]1(O)CC[C@H]2[C@@H]3CCC4=CC(=O)CC[C@@H]4[C@H]3CC[C@@]21C | inconclusive: 28.3 µM [inhibitor, full curve]
16 | CC(=O)C(C)C | inactive
17 | CC(C)(C)C1=CC(=O)C(C(C)(C)C)=CC1=O | inconclusive: 27.5 µM [inhibitor]
18 | Nc1ccc(Oc2cccc(Oc3ccc(N)cc3)c2)cc1 | inconclusive: 39.9 µM [inhibitor]
19 | CCCCOC(=O)C(C)Oc1ccc(Oc2ccc(C(F)(F)F)cn2)cc1 (centres undefined) | inconclusive: 100 µM [inhibitor, single point]
20 | CCCCCCCCCCCCOCCOS(=O)(=O)O | inconclusive: 63.3 µM [inhibitor]
21 | CC1=C(CC(=O)O)c2cc(F)ccc2/C1=C\c1ccc(S(C)(=O)=O)cc1 | inconclusive: 13.8 µM [inhibitor, partial curve]

Molecular target: Cytochrome P450 2C19 (Homo sapiens) (UniProt P33261)
Assay: Cytochrome P450 Family 2 Subfamily C Member 19 (CYP2C19) small molecule antagonists: luciferase reporter qHTS assay (AID 1671197); note: nearly all actives have a fitted effect of over 65% in size; for activity change, negative = inhibition: % is set by controls: 0 for no effect and ±100 for the full control effect
Conditions: P450-Glo CYP2C19 enzyme, luciferin luminescence, 1 h; series mostly up to 115 µM; activity change, negative = inhibition: at the top concentration
Outline: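 Inhibition of CYP2C19 was scored from loss of luminescence in a P450-Glo proluciferin substrate assay, NADPH-started and run 1 h at 37C, with ketoconazole as positive control.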

Row | Compound | Potency | activity change, negative = inhibition
22 | O=C(Oc1ccccc1)c1ccccc1 | inconclusive: 89.4 µM [inhibitor, single point] | –
23 | C#C[C@]1(O)CC[C@H]2[C@@H]3CCC4=CC(=O)CC[C@@H]4[C@H]3CC[C@@]21C | active: 5.03 µM and active: 4.36 µM | –
24 | C=CC(=O)OCC(C)OCC(C)OCC(C)OC(=O)C=C (centres undefined) | active: 3.56 µM | –
25 | O=[N+]([O-])c1ccc(O)cc1C(F)(F)F | – | inactive: 266%
26 | CC1=C(CC(=O)O)c2cc(F)ccc2/C1=C\c1ccc(S(C)(=O)=O)cc1 | – | inactive: -3.76% [at 52.9 µM]
27 | COc1ccc2c(c1)c(CC(=O)O)c(C)n2C(=O)c1ccc(Cl)cc1 | inconclusive: 80.2 µM [inhibitor, single point] | –
28 | F[B-](F)(F)F | inconclusive: 90.7 µM [inhibitor, single point] | –

Molecular target: Cytochrome P450 2C9 (Homo sapiens) (UniProt P11712)
Assay: Cytochrome P450 Family 2 Subfamily C Member 9 (CYP2C9) small molecule antagonists: luciferase reporter qHTS assay (AID 1671198); note: nearly all actives have a fitted effect of over 50% in size
Conditions: P450-Glo CYP2C9 enzyme assay, luciferin luminescence; series mostly up to 115 µM; activity change, negative = inhibition: at the top concentration
Outline: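 P450-Glo proluciferin substrate with CYP2C9 enzyme; 10 min RT preincubation, then NADPH regeneration 1 h at 37C; luciferin detection reagent 20 min RT, luminescence in relative luminescence units.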

Row | Compound | Potency
29 | O=C(O)Cc1c(Cl)ccc(Cl)c1Cl | inconclusive: 31.7 µM [inhibitor, partial curve]
30 | O=C(Oc1ccccc1)c1ccccc1 | inconclusive: 79.6 µM [inhibitor, partial curve, poor fit]
31 | CCCCCCCCCCCCCCOS(=O)(=O)O | inconclusive: 89.4 µM [inhibitor]
32 | C=CC[N+](C)(C)CC=C | inconclusive: 71.5 µM [inhibitor, partial curve, poor fit]
33 | CC(C)C[C@H](NC(=O)[C@H](Cc1ccccc1)NC(=O)c1cnccn1)B(O)O | inconclusive: 17.4 µM [inhibitor, partial curve]
34 | O=C(O)c1cccnc1Nc1cccc(C(F)(F)F)c1 | inconclusive: 34.7 µM [inhibitor, partial curve]
35 | C[C@]12CCC(=O)C=C1C=C[C@@H]1[C@@H]2CC[C@@]2(C)[C@H]1CC[C@@]21CCC(=O)O1 | inconclusive: 30.9 µM [inhibitor]
36 | CCc1ccc(CCOc2ccc(CC3SC(=O)NC3=O)cc2)nc1 (centres undefined) | active: 31.7 µM and active: 30.9 µM
37 | Cc1c(-c2ccccc2)oc2c(C(=O)OCCN3CCCCC3)cccc2c1=O | inconclusive: 17.4 µM [inhibitor, partial curve, poor fit]
38 | O=C1[C@H](CC[C@H](O)c2ccc(F)cc2)[C@@H](c2ccc(O)cc2)N1c1ccc(F)cc1 | active: 8.71 µM
39 | CC(C)(C)C1=CC(=O)C(C(C)(C)C)=CC1=O | active: 15.5 µM
40 | Nc1ccc(Oc2cccc(Oc3ccc(N)cc3)c2)cc1 | active: 6.33 µM
41 | Nc1ccc(C(=O)OCCCOC(=O)c2ccc(N)cc2)cc1 | active: 7.1 µM
42 | C[C@]12CCC(=O)C=C1[C@@H]1C[C@@H]1[C@H]1[C@@H]3[C@@H]4C[C@@H]4[C@@]4(CCC(=O)O4)[C@@]3(C)CC[C@@H]12 | inconclusive: 30.9 µM [inhibitor, partial curve]
43 | CC1=C(CC(=O)O)c2cc(F)ccc2/C1=C\c1ccc(S(C)(=O)=O)cc1 | inconclusive: 34.7 µM [inhibitor, partial curve, poor fit]
44 | COc1ccc2c(c1)c(CC(=O)O)c(C)n2C(=O)c1ccc(Cl)cc1 | active: 22.6 µM and active: 17.8 µM and active: 13.8 µM
